Data: patent US20160369115A1, “POLARIZING PLATE COMPOSITION, POLARIZING PLATE PROTECTIVE FILM, POLARIZER, POLARIZING PLATE, LIQUID CRYSTAL DISPLAY DEVICE, AND COMPOUND USED IN THE LIQUID CRYSTAL DISPLAY DEVICE” (FUJIFILM Corporation, priority 2014, published 2016)

How the values were obtained:
[1] = Evaluation of durability of polarizing plate, additive in adhesive layer (Example 3); settings: for Durability of polarizer: amount of change of orthogonal transmittance (%) 60° C., 95%, 500 hours / Durability of polarizer: amount of change of orthogonal transmittance (%) 60° C., 95%, 1,000 hours / Durability of polarizer: amount of change of orthogonal transmittance (%) 80° C., Dry 500 hours / Durability of polarizer: amount of change of orthogonal transmittance (%) 80° C., Dry, 1,000 hours: 410 nm
[2] = Bleed-out properties in polarizer (haze evaluation); settings: haze of polarizing plate, additive in polarizer
[3] = Evaluation of durability of polarizing plate, additive in polarizer (Example 2); settings: 410 nm
[4] = added amount 1.0 per 100 parts by mass of the polyvinyl alcohol resin, film thickness 5 μm
[5] = added amount 10.0 per 100 parts by mass of the polyvinyl alcohol resin, film thickness 5 μm
[6] = added amount 20.0 per 100 parts by mass of the polyvinyl alcohol resin, film thickness 10 μm
[7] = added amount 0.1 per 100 parts by mass of polyvinyl alcohol resin
[8] = added amount 1.0 per 100 parts by mass of polyvinyl alcohol resin
[9] = added amount 10.0 per 100 parts by mass of polyvinyl alcohol resin

COC(=O)Oc1c(Cc2ccc(S(=O)(=O)[O-])cc2S(=O)(=O)[O-])c(=O)n(-c2ccccc2)c(=O)n1Cc1ccccc1.[Na+].[Na+] [Example compound B]
Durability of polarizer: amount of change of degree of polarization (%) 60° C., 95%, 500 hours [1, 4]: A+ (The amount of change of the degree of polarization before and after the elapse of time was less than 0.05%.) | Durability of polarizer: amount of change of degree of polarization (%) 60° C., 95%, 1,000 hours [1, 4]: A+ (The amount of change of the degree of polarization before and after the elapse of time was less than 1.0%.) | Durability of polarizer: amount of change of degree of polarization (%) 80° C., Dry, 500 hours [1, 4]: A+ (The amount of change of the degree of polarization before and after the elapse of time was less than 0.05%.) | Durability of polarizer: amount of change of degree of polarization (%) 80° C., Dry, 1,000 hours [1, 4]: A+ (The amount of change of the degree of polarization before and after the elapse of time was less than 0.1%.) | Durability of polarizer: amount of change of orthogonal transmittance (%) 60° C., 95%, 500 hours [1, 4]: A+ (The amount of change of the orthogonal transmittance before and after the elapse of time was less than 0.1%.) | Durability of polarizer: amount of change of orthogonal transmittance (%) 60° C., 95%, 1,000 hours [1, 4]: A+ (The amount of change of the orthogonal transmittance before and after the elapse of time was less than 0.5%.) | Durability of polarizer: amount of change of orthogonal transmittance (%) 80° C., Dry 500 hours [1, 4]: A+ (The amount of change of the orthogonal transmittance before and after the elapse of time was less than 0.05%.) | Durability of polarizer: amount of change of orthogonal transmittance (%) 80° C., Dry, 1,000 hours [1, 4]: A+ (The amount of change of the orthogonal transmittance before and after the elapse of time was less than 0.1%.) | Durability of polarizer: amount of change of degree of polarization (%) 60° C., 95%, 500 hours [1, 5]: A+ (The amount of change of the degree of polarization before and after the elapse of time was less than 0.05%.) | Durability of polarizer: amount of change of degree of polarization (%) 60° C., 95%, 1,000 hours [1, 5]: A+ (The amount of change of the degree of polarization before and after the elapse of time was less than 1.0%.) | Durability of polarizer: amount of change of degree of polarization (%) 80° C., Dry, 500 hours [1, 5]: A+ (The amount of change of the degree of polarization before and after the elapse of time was less than 0.05%.) | Durability of polarizer: amount of change of degree of polarization (%) 80° C., Dry, 1,000 hours [1, 5]: A+ (The amount of change of the degree of polarization before and after the elapse of time was less than 0.1%.) | Durability of polarizer: amount of change of orthogonal transmittance (%) 60° C., 95%, 500 hours [1, 5]: A+ (The amount of change of the orthogonal transmittance before and after the elapse of time was less than 0.1%.) | Durability of polarizer: amount of change of orthogonal transmittance (%) 60° C., 95%, 1,000 hours [1, 5]: A+ (The amount of change of the orthogonal transmittance before and after the elapse of time was less than 0.5%.) | Durability of polarizer: amount of change of orthogonal transmittance (%) 80° C., Dry 500 hours [1, 5]: A+ (The amount of change of the orthogonal transmittance before and after the elapse of time was less than 0.05%.) | Durability of polarizer: amount of change of orthogonal transmittance (%) 80° C., Dry, 1,000 hours [1, 5]: A+ (The amount of change of the orthogonal transmittance before and after the elapse of time was less than 0.1%.) | Durability of polarizer: amount of change of degree of polarization (%) 60° C., 95%, 500 hours [1, 6]: A+ (The amount of change of the degree of polarization before and after the elapse of time was less than 0.05%.) | Durability of polarizer: amount of change of degree of polarization (%) 60° C., 95%, 1,000 hours [1, 6]: A+ (The amount of change of the degree of polarization before and after the elapse of time was less than 1.0%.) | Durability of polarizer: amount of change of degree of polarization (%) 80° C., Dry, 500 hours [1, 6]: A+ (The amount of change of the degree of polarization before and after the elapse of time was less than 0.05%.) | Durability of polarizer: amount of change of degree of polarization (%) 80° C., Dry, 1,000 hours [1, 6]: A+ (The amount of change of the degree of polarization before and after the elapse of time was less than 0.1%.) | Durability of polarizer: amount of change of orthogonal transmittance (%) 60° C., 95%, 500 hours [1, 6]: A+ (The amount of change of the orthogonal transmittance before and after the elapse of time was less than 0.1%.) | Durability of polarizer: amount of change of orthogonal transmittance (%) 60° C., 95%, 1,000 hours [1, 6]: A+ (The amount of change of the orthogonal transmittance before and after the elapse of time was less than 0.5%.) | Durability of polarizer: amount of change of orthogonal transmittance (%) 80° C., Dry 500 hours [1, 6]: A+ (The amount of change of the orthogonal transmittance before and after the elapse of time was less than 0.05%.) | Durability of polarizer: amount of change of orthogonal transmittance (%) 80° C., Dry, 1,000 hours [1, 6]: A+ (The amount of change of the orthogonal transmittance before and after the elapse of time was less than 0.1%.) | Bleed out [2, 7]: A (The haze was less than 0.3%.) | Bleed out [2, 8]: A (The haze was less than 0.3%.) | Bleed out [2, 9]: A (The haze was less than 0.3%.) | Durability of polarizer: amount of change of degree of polarization (%) 60° C., 95%, 500 hours [3, 7]: A+ (The amount of change of the degree of polarization before and after the elapse of time was less than 0.05%.) | Durability of polarizer: amount of change of degree of polarization (%) 60° C., 95%, 1,000 hours [3, 7]: A+ (The amount of change of the degree of polarization before and after the elapse of time was less than 1.0%.) | Durability of polarizer: amount of change of degree of polarization (%) 80° C., Dry, 500 hours [3, 7]: A+ (The amount of change of the degree of polarization before and after the elapse of time was less than 0.05%.) | Durability of polarizer: amount of change of degree of polarization (%) 80° C., Dry, 1,000 hours [3, 7]: A+ (The amount of change of the degree of polarization before and after the elapse of time was less than 0.1%.) | Durability of polarizer: amount of change of orthogonal transmittance (%) 60° C., 95%, 500 hours [3, 7]: A+ (The amount of change of the orthogonal transmittance before and after the elapse of time was less than 0.1%.) | Durability of polarizer: amount of change of orthogonal transmittance (%) 60° C., 95%, 1,000 hours [3, 7]: A+ (The amount of change of the orthogonal transmittance before and after the elapse of time was less than 0.5%.) | Durability of polarizer: amount of change of orthogonal transmittance (%) 80° C., Dry 500 hours [3, 7]: A+ (The amount of change of the orthogonal transmittance before and after the elapse of time was less than 0.05%.) | Durability of polarizer: amount of change of orthogonal transmittance (%) 80° C., Dry, 1,000 hours [3, 7]: A+ (The amount of change of the orthogonal transmittance before and after the elapse of time was less than 0.1%.) | Durability of polarizer: amount of change of degree of polarization (%) 60° C., 95%, 500 hours [3, 8]: A+ (The amount of change of the degree of polarization before and after the elapse of time was less than 0.05%.) | Durability of polarizer: amount of change of degree of polarization (%) 60° C., 95%, 1,000 hours [3, 8]: A+ (The amount of change of the degree of polarization before and after the elapse of time was less than 1.0%.) | Durability of polarizer: amount of change of degree of polarization (%) 80° C., Dry, 500 hours [3, 8]: A+ (The amount of change of the degree of polarization before and after the elapse of time was less than 0.05%.) | Durability of polarizer: amount of change of degree of polarization (%) 80° C., Dry, 1,000 hours [3, 8]: A+ (The amount of change of the degree of polarization before and after the elapse of time was less than 0.1%.) | Durability of polarizer: amount of change of orthogonal transmittance (%) 60° C., 95%, 500 hours [3, 8]: A+ (The amount of change of the orthogonal transmittance before and after the elapse of time was less than 0.1%.) | Durability of polarizer: amount of change of orthogonal transmittance (%) 60° C., 95%, 1,000 hours [3, 8]: A+ (The amount of change of the orthogonal transmittance before and after the elapse of time was less than 0.5%.) | Durability of polarizer: amount of change of orthogonal transmittance (%) 80° C., Dry 500 hours [3, 8]: A+ (The amount of change of the orthogonal transmittance before and after the elapse of time was less than 0.05%.) | Durability of polarizer: amount of change of orthogonal transmittance (%) 80° C., Dry, 1,000 hours [3, 8]: A+ (The amount of change of the orthogonal transmittance before and after the elapse of time was less than 0.1%.) | Durability of polarizer: amount of change of degree of polarization (%) 60° C., 95%, 500 hours [3, 9]: A+ (The amount of change of the degree of polarization before and after the elapse of time was less than 0.05%.) | Durability of polarizer: amount of change of degree of polarization (%) 60° C., 95%, 1,000 hours [3, 9]: A+ (The amount of change of the degree of polarization before and after the elapse of time was less than 1.0%.) | Durability of polarizer: amount of change of degree of polarization (%) 80° C., Dry, 500 hours [3, 9]: A+ (The amount of change of the degree of polarization before and after the elapse of time was less than 0.05%.) | Durability of polarizer: amount of change of degree of polarization (%) 80° C., Dry, 1,000 hours [3, 9]: A+ (The amount of change of the degree of polarization before and after the elapse of time was less than 0.1%.) | Durability of polarizer: amount of change of orthogonal transmittance (%) 60° C., 95%, 500 hours [3, 9]: A+ (The amount of change of the orthogonal transmittance before and after the elapse of time was less than 0.1%.) | Durability of polarizer: amount of change of orthogonal transmittance (%) 60° C., 95%, 1,000 hours [3, 9]: A+ (The amount of change of the orthogonal transmittance before and after the elapse of time was less than 0.5%.) | Durability of polarizer: amount of change of orthogonal transmittance (%) 80° C., Dry 500 hours [3, 9]: A+ (The amount of change of the orthogonal transmittance before and after the elapse of time was less than 0.05%.) | Durability of polarizer: amount of change of orthogonal transmittance (%) 80° C., Dry, 1,000 hours [3, 9]: A+ (The amount of change of the orthogonal transmittance before and after the elapse of time was less than 0.1%.)
